Measurements: the supplement of paper PMC6445147
This is a noisy data set.

B1: human tRNA-Pro; a variant is named by its letters at N, in order (parent)
chain: GGCTCGTTGGTCTAGNGGTATGATTCTCGCTTAGGGTGCGAGAGGTCCCGGGTTCNNATCCCGGACGAGCCC

Variants of: B1
Test: tRNA 5' processing efficiency (processed reads / all reads, maximum-likelihood estimate) (fraction); higher = more efficient 5' processing
Conditions: HEK293T; construct: CMV Pol-II promoter ((+)CMV library, decapped)
In the case of GGCTCGTTGGTCTAGTGGCATGATTCTCGCTTAGGGTGCGAGAGGTCCCGGGATGAAATCCCGGACGAGCCC [TAA T19C T53A C55G], the “tRNA 5' processing efficiency” value is reported as 0.4.
In the case of GGCTCGTTGGTCTAGCGTTATGATTCTCGCTTAGGGTGCGAGAGGTCCCGGGCTTGGGTCCCGGACGAGCCC [CGG G18T T53C C55T A58G], the “tRNA 5' processing efficiency” value is reported as 0.25.
For GGCTCGTTGGTCTAGGCTTTTGATTCTCGCTTAGGGTGCGAGAGGTCCCGGGTTCAAATCCCGGACGAGCCC [GAA G17C G18T A20T], the “tRNA 5' processing efficiency” value was 0.2.
In the case of GGCTCGTTGGTCTTGGTGTATGATTCTCGCTTAGGGTGCGAGAGGTCCCGGGTTCGTATCCCGGACGAGCCC [GGT A14T G17T], the “tRNA 5' processing efficiency” value is reported as 0.2.
In the case of GGCTCGTTAGTCTAGGGTTATGATTCTCGCTTAGGGTGCGAGAGGTCCCGGGTCCACATCCCGGACGAGCCC [GAC G9A G18T T54C], the “tRNA 5' processing efficiency” value is reported as 0.25.
In the case of GGCTCGTTAGTCTAGGGGTTTGATTCTCGCTTAGGGTGCGAGAGGTCCCGGGTACAAATCCCGGACGAGCCC [GAA G9A A20T T54A], the “tRNA 5' processing efficiency” value is reported as 0.25.
In the case of GGCTCGTTCGTCTAGGGGTATGATTCTCGCTTAGGGTGCGAGAGGTCCCGGGTTCAATTCCCGGACGAGCCC [GAA G9C A58T], the “tRNA 5' processing efficiency” value is reported as 0.25.
In the case of GGCTCGTGGGTCTAGGCGGATGATTCTCGCTTAGGGTGCGAGAGGTCCCGGGTCCAAATCCCGGACGAGCCC [GAA T8G G17C T19G T54C], the “tRNA 5' processing efficiency” value is reported as 0.25.
For GGCTCGTTGGTCTGGGGGTATGATTCTCGCTTAGGGTGCGAGAGGTCCCGGGGTCAAACCCCGGACGAGCCC [GAA A14G T53G T59C], the “tRNA 5' processing efficiency” value was 0.11.
With GGCTCGTCGGTCTAGGGGTCTGATTCTCGCTTAGGGTGCGAGAGGTCCCGGGTTTAAATCCCGGACGAGCCC [GAA T8C A20C C55T] the “tRNA 5' processing efficiency” value was 0.33.
In the case of GGCTCGTTGGTCTAGAGGTATGATTCTCGCTTAGGGTGCGAGAGGTCCCGGGTTTCAACCCCGGACGAGCCC [ACA C55T T59C], the “tRNA 5' processing efficiency” value is reported as 0.2.
For GGCTCGTAGGTCTAGGTTTATGATTCTCGCTTAGGGTGCGAGAGGTCCCGGGTTCAAATCCCGGACGAGCCC [GAA T8A G17T G18T], the “tRNA 5' processing efficiency” value was 0.25.
In the case of GGCTCGTTCGTCTAGGGTTATGATTCTCGCTTAGGGTGCGAGAGGTCCCGGGTTAAAATCCCGGACGAGCCC [GAA G9C G18T C55A], the “tRNA 5' processing efficiency” value is reported as 0.4.
In the case of GGCTCGTCTGTCTAGGGGTATGATTCTCGCTTAGGGTGCGAGAGGTCCCGGGTTCAAACCCCGGACGAGCCC [GAA T8C G9T T59C], the “tRNA 5' processing efficiency” value is reported as 0.4.
With GGCTCGTGTGTCTAGGGGTATGATTCTCGCTTAGGGTGCGAGAGGTCCCGGGTTGAGGTCCCGGACGAGCCC [GAG T8G G9T C55G A58G] the “tRNA 5' processing efficiency” value was 0.33.
With GGCTCGTTTGTCTAGGGGGATGATTCTCGCTTAGGGTGCGAGAGGTCCCGGGTTTAAATCCCGGACGAGCCC [GAA G9T T19G C55T] the “tRNA 5' processing efficiency” value was 0.18.
With GGCTCGTTCGTCTAAGGGTATGATTCTCGCTTAGGGTGCGAGAGGTCCCGGGTTCCAATCCCGGACGAGCCC [GCA G9C G15A] the “tRNA 5' processing efficiency” value was 0.25.
With GGCTCGTCGGTCTAGGGGTTTGATTCTCGCTTAGGGTGCGAGAGGTCCCGGGTTCACATCCCGGACGAGCCC [GAC T8C A20T] the “tRNA 5' processing efficiency” value was 0.25.
With GGCTCGTTTGTCTGGGGGTATGATTCTCGCTTAGGGTGCGAGAGGTCCCGGGTTAAAATCCCGGACGAGCCC [GAA G9T A14G C55A] the “tRNA 5' processing efficiency” value was 0.2.
For GGCTCGTTGGTCTTCAGGAATGATTCTCGCTTAGGGTGCGAGAGGTCCCGGGTTTAAATCCCGGACGAGCCC [AAA A14T G15C T19A C55T], the “tRNA 5' processing efficiency” value was 0.4.
For GGCTCGTTCGTCTTGTGGTATGATTCTCGCTTAGGGTGCGAGAGGTCCCGGGTGCGAATCCCGGACGAGCCC [TGA G9C A14T T54G], the “tRNA 5' processing efficiency” value was 0.6.
For GGCTCGTCGGTCTAGGTGAATGATTCTCGCTTAGGGTGCGAGAGGTCCCGGGTTCAGATCCCGGACGAGCCC [GAG T8C G17T T19A], the “tRNA 5' processing efficiency” value was 0.44.
In the case of GGCTCGTTGGTCTTGGCATATGATTCTCGCTTAGGGTGCGAGAGGTCCCGGGTTCAAATCCCGGACGAGCCC [GAA A14T G17C G18A], the “tRNA 5' processing efficiency” value is reported as 0.17.
For GGCTCGTGGGTCTAGGGGTATGATTCTCGCTTAGGGTGCGAGAGGTCCCGGGGGCAAATCCCGGACGAGCCC [GAA T8G T53G T54G], the “tRNA 5' processing efficiency” value was 0.2.
With GGCTCGTTGGTCTAGGGTTATGATTCTCGCTTAGGGTGCGAGAGGTCCCGGGTTCACACCCCGGACGAGCCC [GAC G18T T59C] the “tRNA 5' processing efficiency” value was 0.25.
In the case of GGCTCGTAGGTCTAGAGGTGTGATTCTCGCTTAGGGTGCGAGAGGTCCCGGGTCCAAATCCCGGACGAGCCC [AAA T8A A20G T54C], the “tRNA 5' processing efficiency” value is reported as 0.25.
For GGCTCGTGGGTCTATGTGTCTGATTCTCGCTTAGGGTGCGAGAGGTCCCGGGTGAACATCCCGGACGAGCCC [GAC T8G G15T G17T A20C T54G C55A], the “tRNA 5' processing efficiency” value was 0.25.
For GGCTCGTTGGTCTAGGGCCTTGATTCTCGCTTAGGGTGCGAGAGGTCCCGGGTTCTAATCCCGGACGAGCCC [GTA G18C T19C A20T], the “tRNA 5' processing efficiency” value was 0.33.
In the case of GGCTCGTTGGTCTGGGGGTGTGATTCTCGCTTAGGGTGCGAGAGGTCCCGGGTTCATATCCCGGACGAGCCC [GAT A14G A20G], the “tRNA 5' processing efficiency” value is reported as 0.25.
With GGCTCGTTGGTCTAGGAGTTTGATTCTCGCTTAGGGTGCGAGAGGTCCCGGGTTCAAATCCCGGACGAGCCC [GAA G17A A20T] the “tRNA 5' processing efficiency” value was 0.7.
In the case of GGCTCGTTGGTCTAGGAATATGATTCTCGCTTAGGGTGCGAGAGGTCCCGGGATCAAATCCCGGACGAGCCC [GAA G17A G18A T53A], the “tRNA 5' processing efficiency” value is reported as 0.33.
In the case of GGCTCGTAGGTCTATGGGTATGATTCTCGCTTAGGGTGCGAGAGGTCCCGGGATCAAATCCCGGACGAGCCC [GAA T8A G15T T53A], the “tRNA 5' processing efficiency” value is reported as 0.5.
In the case of GGCTCGTTGGTCTAAGTGTTTGATTCTCGCTTAGGGTGCGAGAGGTCCCGGGGTCTAGTCCCGGACGAGCCC [GTA G15A G17T A20T T53G A58G], the “tRNA 5' processing efficiency” value is reported as 0.25.
In the case of GGTTCGTTGGTCTAGTGCTATGATTCTCGCTTAGGGTGCGAGAGGTCCCGGCTTTATATCCCGGACGAGCCC [TAT C3T G18C G52C C55T], the “tRNA 5' processing efficiency” value is reported as 0.17.
For GGCTCGTGTGTCTAGCGGCATGATTCTCGCTTAGGGTGCGAGAGGTCCCGGGTTGAAATCCCGGACGAGCCC [CAA T8G G9T T19C C55G], the “tRNA 5' processing efficiency” value was 0.25.
In the case of GGCTCGTAGGTCTCGGAGTATGATTCTCGCTTAGGGTGCGAGAGGTCCCGGGTTTAGATCCCGGACGAGCCC [GAG T8A A14C G17A C55T], the “tRNA 5' processing efficiency” value is reported as 0.33.
With GGCTCGTTGGTCTGCGAGGATGATTCTCGCTTAGGGTGCGAGAGGTCCCGGGTTTTCATCCCGGACGAGCCC [GTC A14G G15C G17A T19G C55T] the “tRNA 5' processing efficiency” value was 0.33.
